This is an account of results in patent publication US20250060373A1, “NOVEL ASSAY AND NOVEL METHODS OF TREATING HUTCHINSON-GILFORD PROGERIA SYNDROME” (The Progeria Research Foundation, priority 2021, published 2025).

This data set deals with progerin. As to the kind of experiment: Lonafarnib Interference Assay (exogenous lonafarnib spiked into HGPS plasma, SMC Progerin Immunoassay). On the set-up: species or system human. To be noted: HGPS plasma spiked with 7.92 μg/mL lonafarnib in DMSO (3×Cmax) vs DMSO control; p=0.198.

`NC(=O)N1CCC(CC(=O)N2CCC([C@H]3c4ncc(Br)cc4CCc4cc(Cl)cc(Br)c43)CC2)CC1` [lonafarnib]: the “Effect of lonafarnib spike on mean progerin reading” value is “unaffected”.
